Assay results as given in patent publication US7396524B2, “Methods for screening compounds for proarrhythmic risk and antiarrhythmic efficacy” (Main Line Health Heart Center, priority 2005, dated 2008).
Some entries share one result that the patent states for a list of compounds.

These compounds were tested on rabbit left ventricular wedge preparations and single rabbit ventricular myocytes. Details: ranking by maximal TdP score.
With `CN(C)CCCC1(c2ccc(F)cc2)OCc2cc(C#N)ccc21` (stereo not drawn) [citalopram] the “TdP Risk Category” value was “Low TdP Risk (a score of equal to or less than four, but greater than zero indicates a low risk of TdP)”. For `COc1c(N2C[C@@H]3CCCN[C@@H]3C2)c(F)cc2c(=O)c(C(=O)O)cn(C3CC3)c12` [moxifloxacin], the “TdP Risk Category” value was “Low TdP Risk (a score of equal to or less than four, but greater than zero indicates a low risk of TdP)”. In the case of `C=C[C@H]1C[N@@]2CC[C@H]1C[C@@H]2[C@@H](O)c1ccnc2ccc(OC)cc12` [quinidine], the “TdP Risk Category” value is reported as “High TdP Risk (a score of eight or greater indicates a high risk of TdP)”.
